The nature of the test: qHTS Assay for Lipid Storage Modulators in Drosophila S3 Cells.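 On cell number change: cells counted by Cell Tracker Red CMTPX staining in the red channel.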 The settings on record: BODIPY lipid droplet fluorescence, 18-24 h; for cell number change: measured here: cell count max response, cells fed with added oleic acid. The method in brief: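 Laser-scanning cytometry quantifies lipid droplet accumulation (500–530 nm total intensity; droplet/cell object ratio) in oleic acid-fed (400 uM added) Drosophila S3 cells treated with a concentration series. 20 uM Triacsin C defined 100% inhibition.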
(In general: In qHTS, concentration-response curves come from the screen itself.)

Where [1] appears, read: measured here: lipid fluorescence (Fed channel) AC50, cells fed with added oleic acid.
[2] abbreviates: measured here: cell number channel AC50, cells fed with added oleic acid.

The structures appear in SMILES notation. The list shows a part of the results. These are further read-outs of the screen, such as a control signal, another cell line or another target. No call is given for them. Most of these compounds were active or inconclusive in the main read-out, so they are no random draw. The note in brackets gives the kind of curve behind each potency; many fits are weak.

One may read the AC50 as the concentration giving half of the maximal activity seen. Low readings indicate greater potency, high ones weaker potency.

Take `CCCCNc1nc(NC)nc(Cl)c1SC`: the cell number change was -20.2%. In addition, under setting [1], the AC50 was 0.58 µM [falling, single point].
Turning to `O=C(C1CCN(c2nc(-c3ccccc3)nc3c2CCC3)CC1)N1CCC(O)CC1`, the cell number change was -23.2%. Also, under setting [1], the AC50 was 23.1 µM [falling, partial curve, poor fit].
For the compound `CSc1ccc(C2=CC(=O)C[C@H](c3ccc(F)cc3)C2)cc1`, the cell number change was -1.16%. Also, under setting [1], the AC50 was 0.58 µM [falling, single point].
As to `CSc1ncccc1C(=O)N(C)CC(=O)Nc1ccc(Cl)c(C(F)(F)F)c1`, the cell number change was found to be 8.65%.
With `CC(NC(=O)CN(C)Cc1cccs1)c1ccccc1` (centres undefined), the cell number change came to 24.3%. Besides, the AC50 under setting [1] was 0.13 µM [falling, full curve, poor fit].
Regarding `O=C(COC(=O)CC1CCCC1)Nc1ccc(OC(F)F)cc1`, the cell number change came to 38.9%. Under setting [2], the AC50 was 29.1 µM [rising, single point].
`CC(=O)N1N=C(c2ccc3nccnc3c2)CC1c1ccccc1` (centres undefined): the cell number change is -9.21%.
As for `O=c1cnc2cc([N+](=O)[O-])ccc2[nH]1`, the cell number change was 22.3%.
Regarding `CNS(=O)(=O)c1ccc(N2CCCC2=O)c([N+](=O)[O-])c1`, the AC50 under setting [1] is 14.6 µM [falling, partial curve].
With `CCOc1ccc(N(C)c2ccc(/C=C3/SC(=S)NC3=O)cc2)cc1`, the cell number change is -66.7%. The AC50 under setting [2] is 16.4 µM [falling, single point]. Besides, the AC50 under setting [1] is 3.26 µM [falling, full curve].
As for `CC(=O)c1c(C)[nH]c(C(=O)NC2=NCCS2)c1C`, the AC50 under setting [1] is 1.3 µM [falling, partial curve, poor fit].
Take `Cc1ccc(C(=O)Oc2cc(N)n(S(=O)(=O)c3ccc(F)cc3)n2)cc1`: the cell number change is 17.1%. Also, the AC50 under setting [1] was 0.58 µM [rising, single point].
`Cc1cc(C(C)(C)C)cc(C)c1C[n+]1ccc2ccccc2c1`: the cell number change is -60%. Further, the AC50 under setting [2] is 20.6 µM [falling, partial curve]. Under setting [1], the AC50 was 18.4 µM [falling, partial curve].
As to `COCCN(C(=O)COC(=O)c1cccs1)c1c(N)n(Cc2ccccc2)c(=O)[nH]c1=O`, the cell number change was 5.74%.
As to `O=C(CNc1ccccc1OC(F)F)N1CCc2ccccc21`, the cell number change is -5.89%. Also, under setting [2], the half-maximal activity concentration (AC50) is 0.13 µM [falling, full curve, poor fit]. Also, the AC50 under setting [1] is 0.13 µM [falling, full curve, poor fit].
For the compound `COc1cc(C=O)ccc1OCC(=O)Nc1ccccc1N1CCOCC1`, the half-maximal activity concentration (AC50) under setting [1] is 9.2 µM [falling, partial curve, poor fit].
For the compound `CCn1c(SC(C)C)nnc1-c1c[nH]c2ccccc12`, the cell number change came to 3.02%.
As for `Nc1ccc(-c2nc3ccc(N)cc3o2)cc1`, the cell number change was -10%. In addition, under setting [1], the AC50 is 32.6 µM [rising, single point].
Regarding `Cc1cc(C)nc(SCNC(=O)c2ccc(Cl)cc2)n1`, the cell number change was 52.8%. Further, under setting [2], the half-maximal activity concentration (AC50) was 20.6 µM [rising, single point]. Besides, the AC50 under setting [1] is 25.9 µM [rising, single point].
For `O=C(/C=C/c1ccc([N+](=O)[O-])cc1)NCc1cccs1`, the cell number change is -71.8%. For the same compound, under setting [2], the AC50 was 23.1 µM [falling, partial curve]. For the same compound, under setting [1], the AC50 was 20.6 µM [falling, partial curve, poor fit].
Take `COc1ccc(S(=O)(=O)N2CCC(C(N)=O)(N3CCCCC3)CC2)cc1`: the cell number change was -15.8%. Besides, the AC50 under setting [1] was 0.411 µM [rising, full curve, poor fit].
For `NC(=S)n1[nH]c(-c2ccc([N+](=O)[O-])cc2)c(N=Nc2cccc([N+](=O)[O-])c2)c1=O`, the cell number change was -27.1%.
For the compound `COC(=O)c1ccc(CSc2ncnc3ccccc23)o1`, the cell number change is 18.7%. The AC50 under setting [1] was 6.51 µM [falling, single point].
For the compound `O=C1C=C(NC(=O)Nc2ccc(Cl)c(Cl)c2)CCC1`, the cell number change is -31%. Also, the AC50 under setting [2] is 0.259 µM [falling, full curve, poor fit]. Besides, the AC50 under setting [1] is 6.51 µM [rising, single point].
For `Cc1cc(C)n(CCCNC(=O)C2CC(=O)N(Cc3ccccc3)C2)n1` (centres undefined), the cell number change worked out at 113%. Besides, the AC50 under setting [2] was 7.31 µM [rising, partial curve].
On to `COc1ccc(OC)c(/C=C/C(=O)OCC(=O)N2CCCC2)c1`, for which the cell number change is 0.313%. In addition, the half-maximal activity concentration (AC50) under setting [2] was 0.00517 µM [falling, full curve, poor fit].
On to `Cc1ccc(NS(=O)(=O)c2cc(C(N)=O)ccc2C)cc1`, for which the cell number change came out at 40.6%. In addition, the AC50 under setting [2] was 8.2 µM [rising, partial curve, poor fit]. Moreover, the half-maximal activity concentration (AC50) under setting [1] is 1.3 µM [rising, partial curve].
As for `COC(=O)CC/C(O)=C1\C(=O)CC(C)(C)CC1=Nc1ccccc1OC`, the cell number change came out at 27.5%. In addition, under setting [1], the AC50 is 29.1 µM [rising, single point].
As for `CCC(=O)c1ccc(OCC(=O)OC(C)C(=O)N2CCc3ccccc32)cc1` (centres undefined), the cell number change amounted to 22%.
Take `CC(C)c1ccc(NC(=O)CCNS(=O)(=O)c2cccc3nonc23)cc1`: the cell number change was -30.1%. Further, under setting [2], the AC50 was 20.6 µM [falling, single point].
For `CCOC(=O)c1ccccc1NC(=O)COC(=O)CCNS(=O)(=O)c1cccs1`, the cell number change stood at 24.1%.
Consider `Cc1nn(C(C)CC(=O)O)c(C)c1Br` (centres undefined), for which the cell number change was -103%. The AC50 under setting [2] is 25.9 µM [falling, partial curve]. In addition, the AC50 under setting [1] is 5.8 µM [falling, partial curve].
Take `CCC(=O)[C@@]1(C)[C@H](C)C[C@H]2[C@@H]3CCC4=CC(=O)C=C[C@]4(C)[C@H]3[C@@H](O)C[C@@]21C`: the cell number change stood at 63.4%. For the same compound, the half-maximal activity concentration (AC50) under setting [2] was 2.06 µM [rising, full curve]. Moreover, the AC50 under setting [1] is 1.64 µM [rising, partial curve].
Turning to `O=C(Cn1cncn1)N1CCN(c2ccc(F)cc2)CC1`, the cell number change is -17.5%. For the same compound, under setting [1], the AC50 is 0.82 µM [falling, full curve, poor fit].
Regarding `Cc1nn(C)cc1CN(C)Cc1ccc(OCC(O)CN2CCCCC2)cc1` (centres undefined), the cell number change turned out to be 20.2%.
For `CC(=O)c1cccc(NC(=O)/C(=C/c2ccncc2)NC(=O)c2ccccc2)c1`, the cell number change came to 19.2%. The AC50 under setting [1] is 14.6 µM [falling, partial curve, poor fit].
For the compound `Cc1ccc(S(=O)(=O)N2CCOCC2)cc1NC(=O)c1cc([N+](=O)[O-])ccc1N1CCOCC1`, the cell number change turned out to be 35.6%. Moreover, the AC50 under setting [2] is 14.6 µM [rising, single point]. Further, the half-maximal activity concentration (AC50) under setting [1] is 14.6 µM [rising, partial curve].
Take `CC(=O)c1cccc(S(=O)(=O)N2CCC(C(=O)N(C)Cc3ccc(Cl)s3)CC2)c1`: the cell number change came out at 7.55%. Besides, the AC50 under setting [1] was 4.11 µM [falling, single point].
As to `CC12CCC(=O)N1C(C(=O)OCC(=O)Nc1sccc1C#N)CS2` (centres undefined), the cell number change was 34.1%. Further, the AC50 under setting [2] was 0.366 µM [rising, full curve]. Further, the concentration at half-maximal activity (AC50) under setting [1] was 0.731 µM [falling, full curve].
Take `COc1ccc(NC(=O)Nc2nc3c(s2)CCCC3)cc1`: the cell number change is -31.7%. Besides, under setting [2], the AC50 is 32.6 µM [falling, single point]. Also, under setting [1], the AC50 was 32.6 µM [falling, partial curve, poor fit].
With `O=C(O)Cn1cc(C(=O)C2CC2)c2ccccc21`, the cell number change was -165%. Also, the AC50 under setting [2] is 29.1 µM [falling, partial curve].
For `CCOC(=O)c1ccccc1NC(=O)Cn1cnc2c(oc3ccccc32)c1=O`, the cell number change is 5.85%. The AC50 under setting [2] was 0.461 µM [rising, partial curve, poor fit]. Besides, the AC50 under setting [1] was 4.11 µM [rising, single point].
`CC(=O)N1CC(=O)N(CC(=O)Nc2ccc(Br)cc2)C1=S`: the cell number change was -5.04%. Further, under setting [1], the AC50 was 0.206 µM [rising, single point].
For `CCc1c(C(=O)NC(C)C2CCCO2)csc1C` (centres undefined), the cell number change was -28.2%.
On to `Cc1ccc(C(=O)C=CNNC(=O)c2ccccc2)cc1`, for which the cell number change is -12.2%.
For `COc1ccc(CCNS(=O)(=O)c2cccc([N+](=O)[O-])c2)cc1`, the cell number change was -5.51%. In addition, the AC50 under setting [1] is 0.731 µM [falling, partial curve, poor fit].
In the case of `CNC(=O)c1cc2cc(Br)ccc2s1`, the cell number change came out at 49.7%. Besides, under setting [2], the half-maximal activity concentration (AC50) is 0.206 µM [rising, full curve, poor fit]. In addition, the concentration at half-maximal activity (AC50) under setting [1] was 0.0517 µM [rising, partial curve, poor fit].
For the compound `COc1ccc(NC(=O)c2cc(F)c(F)cc2Cl)cc1Cl`, the cell number change came to 20.9%. Besides, the AC50 under setting [1] is 3.66 µM [rising, full curve, poor fit].
For the compound `CN(Cc1ccc(F)cc1)S(=O)(=O)c1nnc(NC(=O)c2ccccc2Br)s1`, the cell number change was -5.77%. In addition, the AC50 under setting [1] was 6.51 µM [falling, single point].
As for `Cc1ccc(-c2nnc(-c3ccc(NC(=O)Cc4cccs4)cc3)o2)cc1`, the cell number change was -8.69%. In addition, under setting [2], the half-maximal activity concentration (AC50) is 2.31 µM [falling, single point].
With `CC(=O)c1c(C)[nH]c(C(=O)Nc2ccc(Cl)cc2F)c1C`, the cell number change amounted to 14%. The AC50 under setting [1] is 0.13 µM [falling, full curve].
Take `COc1ncccc1C(=O)NC1CCCc2c1cnn2-c1ccc(C)c(C)c1` (centres undefined): the cell number change was -25.5%. Besides, the AC50 under setting [2] was 0.291 µM [falling, full curve]. Further, under setting [1], the AC50 was 0.651 µM [falling, partial curve, poor fit].
Turning to `Cc1cc(C)nc(N/N=C/c2ccncc2)n1`, the cell number change is -13.9%. Besides, the AC50 under setting [2] is 0.231 µM [falling, full curve, poor fit].
On to `COc1ccccc1NC(=S)NC(NC(C)=O)C(Cl)(Cl)Cl` (centres undefined), for which the cell number change is -5.66%.
Regarding `O=C(Nc1cccnc1)c1c(O)c2cccc3c2n(c1=O)CC3`, the cell number change was -5.68%. Under setting [1], the AC50 was 25.9 µM [rising, single point].
Consider `NC1=NC(=O)/C(=C/c2ccc(Br)cc2)S1`, for which the cell number change worked out at 8.39%. The AC50 under setting [1] is 0.651 µM [falling, full curve, poor fit].
For the compound `O=C(CCn1cnc2ccccc2c1=O)Nc1nc(-c2ccc(Br)cc2)cs1`, the cell number change was -36.6%. Moreover, the AC50 under setting [2] is 0.731 µM [falling, full curve, poor fit]. Further, under setting [1], the AC50 was 0.731 µM [falling, full curve, poor fit].
`COC(=O)c1sc(S(=O)(=O)N2CCCCC2)c(C(=O)OC)c1C`: the cell number change is 2.73%. For the same compound, under setting [1], the AC50 was 29.1 µM [rising, single point].
As for `Cc1ccc(-n2nc3c(=O)n(CCCC(=O)NCc4ccccc4C)nc(C)c3c2C)cc1`, the cell number change is -43.7%. Under setting [1], the AC50 was 29.1 µM [falling, single point].

Source of the values: PubChem BioAssay AID2685 (National Center for Advancing Translational Sciences (NCATS), 2010).
